Reference: PubChem BioAssay AID2685 (National Center for Advancing Translational Sciences (NCATS), 2010)
The whole screen tested about 320,000 compounds, of which about 2,100 (0.66%) were called active. Inconclusive results, whose numbers are uncertain, are shown with a selection of clear calls. The call rests on the fitted dose curve; in most records, active means well fitted inhibition curve with a large enough effect in the signal ratio, with a control signal flat (not every such curve was filed as active); inconclusive means small, poorly fitted or top-dose-only effect, or effect the other way, or a change in a side signal; inactive means flat fitted curve, though single readings scatter; the % refers to the signal ratio. Potencies of inconclusive entries are doubtful fits and often do not repeat.

Assay: qHTS Assay for Lipid Storage Modulators in Drosophila S3 Cells
Conditions: BODIPY lipid droplet fluorescence, 18-24 h, cells fed with added oleic acid; lipid storage change, negative = inhibition: at 46.1 µM (top of the series) unless noted
Procedure, shortened: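 Drosophila S3 cells loaded with oleic acid (400 uM, as added) and compounds at several concentrations; lipid droplets imaged by 488-nm laser-scanning cytometry, 500–530 nm intensity and object ratio to cell channel. Percent activity normalized to 20 uM Triacsin C.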
On the % scale 0 is the no-effect control and ±100 the full control effect; potency means the concentration at half of the fitted maximal effect.

| Structure (SMILES) | lipid storage change, negative = inhibition | Potency | outcome |
| --- | --- | --- | --- |
| COc1cccc(/C=C/C(=O)OCC(=O)Nc2cc(C(F)(F)F)ccc2Cl)c1 | inactive: 12.8% |  |  |
| CC1Cc2ccccc2N1S(=O)(=O)c1cccc(C(=O)NNC(=O)c2ccccc2F)c1 (centres undefined) | inconclusive: -4.05% |  |  |
| O=C(CSc1nnc(COc2ccc(Cl)cc2)o1)OC1CCCCC1 |  | inconclusive: 32.6 µM [cytotoxic, single point] |  |
| COc1ccc(CCNC(=O)CSc2ncnc3c2oc2ccccc23)cc1OC | inconclusive: 26.2% |  |  |
| Nc1c2c(nc3ccn(Cc4ccccc4)c(=O)c13)CCC2 |  | inconclusive: 4.61 µM [rising, single point] |  |
| Cc1cc(N2C(=O)C3CCC(c4ccccc4)CC3C2=O)no1 (centres undefined) | inconclusive: 21.9% |  |  |
| COC(=O)c1sc2ccccc2c1-n1cccc1C(=O)C(=O)Nc1ccc(OC)cc1 | inconclusive: 13.6% |  |  |
| Cc1ccc(CNc2ccccc2C(=O)O)s1 |  | inconclusive: 29.1 µM [activator, single point] |  |
| O=C(O)C1=C[C@H](c2csc3ccccc23)C[C@H](OCCCCO)O1 | inconclusive: -0.037% |  |  |
| COc1ccc(-n2sc3c(c2=S)-c2cc(OC)ccc2NC3(C)C)cc1 | inconclusive: -91.2% |  |  |
| Cc1ccc(Nc2c(-c3ccc(N4CCOCC4)cc3)nc3ncccn23)c(C)c1 | inconclusive: 26.4% |  |  |
| CCn1cc(CNC(=O)c2ccc(OC3CCN(Cc4ccccn4)CC3)cc2)cn1 |  | active: 3.66 µM |  |
| CCc1nnc(NC(=O)c2oc3cc(C)c(C)cc3c2C)s1 | inconclusive: 12.4% |  |  |
| O=C(Nc1ccccc1-c1nnn(CC(=O)N2CCN(c3ccccc3)CC2)n1)c1cccs1 |  | inconclusive: 1.84 µM [activator, partial curve] |  |
| Cc1ccc(N(C(=O)C(F)(F)F)C(C(=O)NC2CCCCC2)c2cccs2)cc1 (centres undefined) |  | inconclusive: 0.058 µM [activator, full curve, poor fit] |  |
| CCn1c(SCC(=O)Nc2nccs2)nnc1-c1ccccn1 |  | inconclusive: 1.84 µM [falling, full curve] |  |
| COc1cc(NC(=O)CSc2nnc(Cn3nnc4ccccc43)n2C)cc(OC)c1 |  | inconclusive: 18.4 µM [falling, single point] |  |
| COc1ccc(NC(=S)N(CCCN2CCCC2)Cc2cccs2)cc1 |  | inconclusive: 0.0731 µM [falling, full curve] |  |
| CC(C)(C)NC(=O)NC(=O)CN1c2cccc3cccc(c23)S1(=O)=O | inconclusive: 59.7% |  |  |
| CC12CCC(=O)N1C(C(=O)Nc1nnc(SCc3ccccc3F)s1)CS2 (centres undefined) | inconclusive: -29.5% |  |  |
| CCOC(=O)N1CCN(c2c(N3CCN(c4ccccc4F)CC3)c(=O)c2=O)CC1 | inconclusive: -4.85% |  |  |
| COc1cccc(CNC(=O)COC(=O)CCc2cc(OC)c(OC)c(OC)c2)c1 | inconclusive: 5.03% |  |  |
| O=C(NNc1c2ccccc2nc2ccccc12)c1ccc(Cl)cc1 | inconclusive: -5.45% |  |  |
| Cc1ccc(NC(=O)CCCc2ccccc2)nc1 | inconclusive: 15% |  |  |
| O=C(Nc1ccc2sccc2c1)c1cccc(N2C(=O)CCC2=O)c1 | inconclusive: -69.9% |  |  |
| CCc1ccccc1NS(=O)(=O)c1ccc2[nH]cc(C(=O)NC3CCCC3)c(=O)c2c1 | inconclusive: -45.6% |  |  |
| CC(=O)c1cccc(NC(=O)C2CCN(C(=O)c3ccccc3Cl)CC2)c1 |  | inconclusive: 5.17 µM [activator, full curve] |  |

A few values from above.
Under lipid storage change, negative = inhibition, `Cc1ccc(Nc2c(-c3ccc(N4CCOCC4)cc3)nc3ncccn23)c(C)c1` is entered as inconclusive: 26.4%
Under lipid storage change, negative = inhibition, `COC(=O)c1sc2ccccc2c1-n1cccc1C(=O)C(=O)Nc1ccc(OC)cc1` is entered as inconclusive: 13.6%
Under lipid storage change, negative = inhibition, `CCc1nnc(NC(=O)c2oc3cc(C)c(C)cc3c2C)s1` is entered as inconclusive: 12.4%
Under lipid storage change, negative = inhibition, `COc1cccc(CNC(=O)COC(=O)CCc2cc(OC)c(OC)c(OC)c2)c1` is entered as inconclusive: 5.03%
Under lipid storage change, negative = inhibition, `Cc1cc(N2C(=O)C3CCC(c4ccccc4)CC3C2=O)no1` (centres undefined) is entered as inconclusive: 21.9%
Under Potency, `O=C(CSc1nnc(COc2ccc(Cl)cc2)o1)OC1CCCCC1` is entered as inconclusive: 32.6 µM [cytotoxic, single point]

Following part.

| Structure (SMILES) | lipid storage change, negative = inhibition | Potency | outcome |
| --- | --- | --- | --- |
| O=C(COC(=O)c1ccc(Cl)c(S(=O)(=O)N2CCOCC2)c1)NCc1ccco1 | inconclusive |  |  |
| COC(=O)c1cn(C(=O)c2ccco2)c2ccccc12 | inconclusive: 11.6% |  |  |
| C=CCn1c(-c2ccc(S(=O)(=O)N3CCOCC3)cc2)csc1=Nc1ccccc1 |  | inconclusive: 29.1 µM [cytotoxic, single point] |  |
| CCOc1ccc2nc(SCC(=O)NC(=O)C(C)C)sc2c1 | inconclusive: -20.3% |  |  |
| CCOC(=O)C1CCN(C(=O)/C=C/c2ccc(OC)cc2)CC1 | inconclusive: 5.96% |  |  |
| Cc1cc(C)nc(SCC(=O)NCc2ccco2)n1 |  | inconclusive: 0.82 µM [falling, single point] |  |
| COc1ccc(C2/C=C\CN(C(=O)Nc3ccc(C(F)(F)F)cc3)CC(=O)N2Cc2ccc(F)cc2)cc1 (centres undefined) |  | inconclusive: 18.4 µM [falling, partial curve, poor fit] |  |
| C/C(N)=C(/C#N)C(=O)COC(=O)c1cc(-c2cccc(Br)c2)nc2ccccc12 |  | inconclusive: 2.31 µM [rising, single point] |  |
| Cc1cc(C)n(C(=O)c2ccc(S(=O)(=O)N3CCCC3)cc2)n1 |  | inconclusive: 0.146 µM [falling, full curve] |  |
| CCC(=O)c1ccc2ncccc2c1 | inconclusive: 3.97% |  |  |
| Cc1nnc(-c2cnn(C)c2N)n1CCCN(C)C | inconclusive: -4.3% |  |  |
| O=C(Nc1ccccc1)C1=C[C@H](c2coc3ccccc3c2=O)C[C@H](OCc2ccc(CO)cc2)O1 | inconclusive: -28.2% |  |  |
| Cc1cccc(OC(C)c2ccnc3nc(/N=C/N(C)C)nn23)c1 (centres undefined) |  | inconclusive: 23.1 µM [activator, single point] |  |
| CC/C(=N\NC(=O)c1ccncc1)C12CC3CC(CC(C3)C1)C2 | inconclusive: -29% |  |  |
| O=C(NCCN1CCOCC1)c1ccccc1N1C(=O)[C@@H]2Cc3c([nH]c4ccccc34)C(c3ccccc3)N2C1=O (some centres undefined) | inconclusive: -11.2% |  |  |
| Cc1cccc(NC(=O)CSCC(=O)Nc2cc(Cl)ccc2N2CCN(C)CC2)c1 | inconclusive: 14.5% |  |  |
| Cc1ccc(S(=O)(=O)N(C)C)cc1NC(=O)CSc1ncc(C(F)(F)F)cc1Cl | inconclusive: -18.3% |  |  |
| COc1c(Br)cc(C(N)=O)cc1OCc1ccccc1 | inconclusive: 21.3% |  |  |
| Cc1ccc2c(c1)nc(NCCO)n2C | inconclusive: 2.51% |  |  |
| COc1ccc(OC)c(-c2csc(NC(=O)CSc3ccccc3)n2)c1 | inconclusive: -32.2% |  |  |
| Cc1cc(C)c(S(=O)(=O)N2CCOC2CNC(=O)C(=O)NCc2ccccn2)c(C)c1 (centres undefined) | inconclusive: -30.2% |  |  |
| CCCOc1ccc(C(CC(=O)O)NS(=O)(=O)c2ccc(NC(C)=O)cc2)cc1 (centres undefined) | inconclusive: 9.41% |  |  |
| N#Cc1cc2ccccc2nc1N | inconclusive: 22% |  |  |
| C=CCOc1cccc(CNCc2cccnc2)c1 | inconclusive: -16.1% |  |  |
| CCn1c(SCC(=O)Nc2nccs2)nnc1-c1cc2cccc(OC)c2o1 |  | active: 1.84 µM |  |
| CCc1nnc(NC(=O)CSc2nc(C)nc3c2c(=O)n(C)c(=O)n3C)s1 | inconclusive: 7.93% |  |  |
| Nc1nc(SCc2ccc(F)cc2)ns1 | inconclusive: 5.31% |  |  |

| Structure (SMILES) | lipid storage change, negative = inhibition | Potency | outcome |
| --- | --- | --- | --- |
| O=C(CN1C(=O)NC(Cc2ccccc2)C1=O)Nc1ccc(F)cc1 (centres undefined) | inconclusive: 6.47% |  |  |
| Cc1ccc(-n2nc3ccc(NC(=O)c4cccc([N+](=O)[O-])c4C)cc3n2)cc1 | inconclusive: -10.5% |  |  |
| COC(=O)c1cc(-c2cccs2)[nH]n1 | inconclusive: 25.5% |  |  |
| CCOc1ccc(CCNC(=O)CSc2cc(=O)n(CC)c3ccccc23)cc1OCC |  | inconclusive: 16.4 µM [falling, single point] |  |
| CCC(C)NC(=O)c1c(N)n(/N=C/c2cccnc2)c2nc3ccccc3nc12 (centres undefined) | inconclusive: 59.8% |  |  |
| C/C(=N/NC(=O)c1ccccn1)c1ccncc1 | inconclusive: 22.1% |  |  |
| CCN(c1ccccc1)S(=O)(=O)c1ccc(N)cc1 | inconclusive: 4.67% |  |  |
| CCOc1ccc(NC(=O)CCS(=O)(=O)c2cccc3nsnc23)cc1 |  | inconclusive: 9.2 µM [activator, partial curve, poor fit] |  |
| Cc1nnsc1C(=O)NNC(=O)Nc1ccccc1 | inconclusive: -15.9% |  |  |
| Cc1ccc(C2=NN(C(=O)CN3CCN(C4CCS(=O)(=O)C4)CC3)C(c3ccco3)C2)cc1 (centres undefined) | inconclusive: 13.8% |  |  |
| CC(CCOS(N)(=O)=O)c1ccccc1 (centres undefined) | inconclusive: 22.9% |  |  |
| C/C(Cc1ccccc1)=N\NC(=O)CNC(=O)c1ccc(F)cc1 |  | inconclusive: 2.06 µM [falling, partial curve] |  |
| Cc1ccc(C(=O)C(C)[n+]2cccc(C(N)=O)c2)cc1 (centres undefined) | inconclusive: -70.9% |  |  |
| O=C(CSc1ccc(Cl)cc1)Nc1cccc(-c2nc3ncccc3o2)c1 |  | active: 1.3 µM |  |
| COc1ccc(C(=O)Nc2ccccc2C(=O)Nc2cc(C)ccn2)cc1 |  | inconclusive: 4.61 µM [falling, single point] |  |
| COc1ccc(Cl)cc1S(=O)(=O)N1CCCc2ccccc21 | inconclusive: -100% |  |  |
| CCOc1cc(N2CCOCC2)c(OCC)cc1NC(=O)c1oc2ccccc2c1C | inconclusive: -3.61% |  |  |
| COc1cc(C2/C(=C(\O)c3ccc4c(c3)OCCO4)C(=O)C(=O)N2Cc2ccco2)cc(OC)c1OC (centres undefined) |  | inconclusive: 29.1 µM [activator, single point] |  |
| O=C(Nc1ccc(F)cc1)Nc1ccc2c(c1)CCC2 | inconclusive: 18.6% |  |  |
| c1ccc2[nH]c(CCCCc3nc4ccccc4[nH]3)nc2c1 |  | inconclusive: 3.26 µM [falling, partial curve] |  |
| CC(=O)Nc1ccc(S(=O)(=O)NC2=C(N3CCN(c4ccc(F)cc4)CC3)C(=O)c3ccccc3C2=O)cc1 |  |  | inactive [at 46.1 µM] |
| CC1CN(C(=O)Cn2cnc3c2c(=O)n(C)c(=O)n3C)CC(C)O1 (centres undefined) |  | inconclusive: 6.51 µM [falling, single point] |  |
| Cc1cccc(NC(=S)NC(C)C(c2cccs2)N2CCN(C)CC2)c1C (centres undefined) | inconclusive: 13.2% |  |  |
| NC(c1ccccc1)c1ccncc1 (centres undefined) | inconclusive: 5.93% |  |  |
| COc1ccc(/C(O)=C2/C(=O)C(=O)N(CCN3CCOCC3)C2c2ccccn2)cc1 (centres undefined) |  | inconclusive: 1.3 µM [falling, full curve] |  |
